Source: the supplement of paper PMC9233669
Variants at the floor of the assay are shown more often than the library holds them.

Tests used:
biotinyl-Trp-oxazolone = assay: self-aminoacylation, catalytic enhancement (BWO) (fold over background); higher = more active; k-Seq, kA / k0A0; sequences stand for … in GGGAAUGGAUCCACAUCUACGAAUUC…UUCACUGCAGACUUGACGAAGCUG
How it was run: (§1)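 Each biotinyl-aminoacyl-oxazolone, at 2–1250 μM, was incubated with mutagenized RNA pools (0.43 μM) carrying a 21-nt variable region. The 50 μL reactions contained HEPES/NaCl/KCl/MgCl2/CaCl2 buffer with 5% acetonitrile at pH 6.9–7.0 and ran for 90 minutes at room temperature. After streptavidin capture, RNA was measured by qPCR in triplicate and by Illumina sequencing, and catalytic enhancement was calculated as median kA over the uncatalyzed rate from a pseudo-first-order fit of per-sequence fraction reacted.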

biotinyl-Val-oxazolone = assay: self-aminoacylation, catalytic enhancement (BVO) (fold over background); higher = more active; k-Seq, kA / k0A0; sequences stand for … in GGGAAUGGAUCCACAUCUACGAAUUC…UUCACUGCAGACUUGACGAAGCUG
How it was run: as §1

biotinyl-Ile-oxazolone = assay: self-aminoacylation, catalytic enhancement (BIO) (fold over background); higher = more active; k-Seq, kA / k0A0; sequences stand for … in GGGAAUGGAUCCACAUCUACGAAUUC…UUCACUGCAGACUUGACGAAGCUG
How it was run: as §1

biotinyl-Met-oxazolone = assay: self-aminoacylation, catalytic enhancement (BMO) (fold over background); higher = more active; k-Seq, kA / k0A0; sequences stand for … in GGGAAUGGAUCCACAUCUACGAAUUC…UUCACUGCAGACUUGACGAAGCUG
How it was run: as §1

biotinyl-Leu-oxazolone = assay: self-aminoacylation, catalytic enhancement (BLO) (fold over background); higher = more active; k-Seq, kA / k0A0; sequences stand for … in GGGAAUGGAUCCACAUCUACGAAUUC…UUCACUGCAGACUUGACGAAGCUG
How it was run: as §1

AUGUUUGCUAAUAGUCGCAAU [Fam3.1 aminoacylation ribozyme variant]
self-aminoacylation (biotinyl-Trp-oxazolone): 1.99
self-aminoacylation (biotinyl-Val-oxazolone): 1.37
self-aminoacylation (biotinyl-Ile-oxazolone): 1.6
self-aminoacylation (biotinyl-Met-oxazolone): 1.08
self-aminoacylation (biotinyl-Leu-oxazolone): 1.33

AUGUUUGCUACUAGUCGCAAG [Fam3.1 aminoacylation ribozyme variant]
self-aminoacylation (biotinyl-Trp-oxazolone): 1.15
self-aminoacylation (biotinyl-Val-oxazolone): 1.18
self-aminoacylation (biotinyl-Ile-oxazolone): 1.36
self-aminoacylation (biotinyl-Met-oxazolone): 1.2
self-aminoacylation (biotinyl-Leu-oxazolone): 1.61

AUUAACCUAGGUCAUCGGCUG [Fam2.2 aminoacylation ribozyme variant]
self-aminoacylation (biotinyl-Trp-oxazolone): 1.57
self-aminoacylation (biotinyl-Val-oxazolone): 1.59
self-aminoacylation (biotinyl-Ile-oxazolone): 1.35
self-aminoacylation (biotinyl-Met-oxazolone): 1.49
self-aminoacylation (biotinyl-Leu-oxazolone): 1.35

AUUACCCUGGUCGUCGAGUGG [Fam2.1 aminoacylation ribozyme variant]
self-aminoacylation (biotinyl-Trp-oxazolone): 0.807
self-aminoacylation (biotinyl-Val-oxazolone): 0.815
self-aminoacylation (biotinyl-Ile-oxazolone): 0.964
self-aminoacylation (biotinyl-Met-oxazolone): 0.991
self-aminoacylation (biotinyl-Leu-oxazolone): 0.855

AUUCACCAAGGCCAUCGGGUG [Fam2.2 aminoacylation ribozyme variant]
self-aminoacylation (biotinyl-Trp-oxazolone): 4.57
self-aminoacylation (biotinyl-Val-oxazolone): 3.49
self-aminoacylation (biotinyl-Ile-oxazolone): 3.32
self-aminoacylation (biotinyl-Met-oxazolone): 5.09
self-aminoacylation (biotinyl-Leu-oxazolone): 5.34

AUUCACCUAGGUCACAGGGUG [Fam2.2 aminoacylation ribozyme variant]
self-aminoacylation (biotinyl-Trp-oxazolone): 1.74
self-aminoacylation (biotinyl-Val-oxazolone): 1.18
self-aminoacylation (biotinyl-Ile-oxazolone): 1.29
self-aminoacylation (biotinyl-Met-oxazolone): 1.63
self-aminoacylation (biotinyl-Leu-oxazolone): 1.84

AUUCACCUAGGUCACCGGAUG [Fam2.2 aminoacylation ribozyme variant]
self-aminoacylation (biotinyl-Trp-oxazolone): 1.84
self-aminoacylation (biotinyl-Val-oxazolone): 1.57
self-aminoacylation (biotinyl-Ile-oxazolone): 1.49
self-aminoacylation (biotinyl-Met-oxazolone): 1.05
self-aminoacylation (biotinyl-Leu-oxazolone): 1.38

AUUCACCUAGGUCGUCGUGUG [Fam2.2 aminoacylation ribozyme variant]
self-aminoacylation (biotinyl-Trp-oxazolone): 0.488
self-aminoacylation (biotinyl-Val-oxazolone): 0.724
self-aminoacylation (biotinyl-Ile-oxazolone): 0.603
self-aminoacylation (biotinyl-Met-oxazolone): 0.762
self-aminoacylation (biotinyl-Leu-oxazolone): 0.782

AUUCACGUACGUCAUCGGGUG [Fam2.2 aminoacylation ribozyme variant]
self-aminoacylation (biotinyl-Trp-oxazolone): 9.47
self-aminoacylation (biotinyl-Val-oxazolone): 6.9
self-aminoacylation (biotinyl-Ile-oxazolone): 6.46
self-aminoacylation (biotinyl-Met-oxazolone): 12.2
self-aminoacylation (biotinyl-Leu-oxazolone): 12.8

AUUCAUCUAGGUCAUCGGCUG [Fam2.2 aminoacylation ribozyme variant]
self-aminoacylation (biotinyl-Trp-oxazolone): 1.59
self-aminoacylation (biotinyl-Val-oxazolone): 1.61
self-aminoacylation (biotinyl-Ile-oxazolone): 1.69
self-aminoacylation (biotinyl-Met-oxazolone): 1.82
self-aminoacylation (biotinyl-Leu-oxazolone): 1.87

AUUCCCAUAGGUCAUCGGGUG [Fam2.2 aminoacylation ribozyme variant]
self-aminoacylation (biotinyl-Trp-oxazolone): 22
self-aminoacylation (biotinyl-Val-oxazolone): 13.4
self-aminoacylation (biotinyl-Ile-oxazolone): 15.6
self-aminoacylation (biotinyl-Met-oxazolone): 23.9
self-aminoacylation (biotinyl-Leu-oxazolone): 32.7

AUUCUCCUAGGUCAUCGUGUG [Fam2.2 aminoacylation ribozyme variant]
self-aminoacylation (biotinyl-Trp-oxazolone): 1.32
self-aminoacylation (biotinyl-Val-oxazolone): 1.15
self-aminoacylation (biotinyl-Ile-oxazolone): 1.15
self-aminoacylation (biotinyl-Met-oxazolone): 1.36
self-aminoacylation (biotinyl-Leu-oxazolone): 1.48
